These are yes or no findings as the source states them, for the method shown. Binding seen in cells or lysates may run through a third protein. Some entries that bind do so weakly or less than the wild type.

Chains of the proteins cited; added tags and fusions are not shown.
UniProt Q9FFT4: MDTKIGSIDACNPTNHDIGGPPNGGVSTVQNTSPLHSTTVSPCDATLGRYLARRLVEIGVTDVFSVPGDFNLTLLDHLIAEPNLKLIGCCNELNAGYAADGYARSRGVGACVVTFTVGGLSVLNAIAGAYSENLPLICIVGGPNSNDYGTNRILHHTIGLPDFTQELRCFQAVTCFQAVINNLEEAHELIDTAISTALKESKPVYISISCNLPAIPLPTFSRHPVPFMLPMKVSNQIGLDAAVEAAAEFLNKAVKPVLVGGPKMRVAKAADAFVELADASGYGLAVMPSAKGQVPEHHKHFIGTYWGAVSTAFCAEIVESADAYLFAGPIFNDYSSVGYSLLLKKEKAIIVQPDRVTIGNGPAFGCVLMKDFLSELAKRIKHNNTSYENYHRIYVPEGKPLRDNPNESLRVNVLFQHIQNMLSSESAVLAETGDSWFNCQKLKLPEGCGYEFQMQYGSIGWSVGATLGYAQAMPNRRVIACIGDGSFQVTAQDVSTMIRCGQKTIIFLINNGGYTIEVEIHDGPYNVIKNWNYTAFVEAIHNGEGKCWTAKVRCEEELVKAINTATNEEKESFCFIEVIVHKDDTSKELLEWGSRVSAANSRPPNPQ

The values below come from publication doi:10.1101/2020.09.22.307595.

This experiment addresses cLUC-AtPDC2 (Arabidopsis thaliana) (UniProt Q9FFT4). The experiment in a line: split reporter.

In the case of “cLUC-AtPDC2 (from UniProt Q9FFT4 1-607) (enzyme)”, the binding entry was “binds”.
